In US20100022402A1, “Methods and Compositions for the In Vitro High-Throughput Detection of Protein/Protein Interactions” (priority 2004, published 2010):
Results are given in words; binding and its absence hold for the method and conditions named. Some binding calls cover weakened binding; strength is not graded here.

By UniProt entry, the sequences of proteins in these tests, tags left out. Where a name states a change or a piece, a line headed by the entry shows the natural chain unless it says otherwise.
UniProt P03712: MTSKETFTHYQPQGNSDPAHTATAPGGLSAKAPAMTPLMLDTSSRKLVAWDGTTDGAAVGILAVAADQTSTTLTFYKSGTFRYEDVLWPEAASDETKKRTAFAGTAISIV

Key:
[1] = biological target: λD-Base display phage (gpD fused to basic aptamer [Gly-Arg]4) (bacteriophage lambda) (UniProt P03712); experiment: lambda two-hybrid: phage pre-association, lysogen counts
[2] = biological target: λD-Base display phage (gpD fused to basic aptamer [Gly-Arg]4) (bacteriophage lambda) (UniProt P03712); experiment: lambda two-hybrid co-infection at increasing MOI

## λD-Acid display phage (gpD fused to acidic aptamer [Gly-Glu]4) (from UniProt P03712 1-110)
[1]
  binding: binds
[2]
  binding: binds
